The record followed here is PubChem BioAssay AID2685 (National Center for Advancing Translational Sciences (NCATS), 2010).

The test in a line: qHTS Assay for Lipid Storage Modulators in Drosophila S3 Cells.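 On cell number change: cells counted by Cell Tracker Red CMTPX staining in the red channel.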 The following applies: BODIPY lipid droplet fluorescence, 18-24 h; for cell number change: measured here: cell count max response, cells fed with added oleic acid. Put shortly: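 Drosophila S3 cells got compounds at several concentrations plus oleic acid (400 uM solution). Laser-scanning cytometry with 488 nm excitation read lipid droplets at 500-530 nm and cells at 575-640 nm. Percent activity was relative to 20 uM Triacsin C.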
In general terms: In qHTS, concentration-response curves come from the screen itself.

Where [1] appears, read: measured here: lipid fluorescence (Fed channel) AC50, cells fed with added oleic acid.
The mark [2] stands for this setting: measured here: cell number channel AC50, cells fed with added oleic acid.

The list shows a part of the results. The main result of the screen is listed elsewhere. These columns were measured beside it and carry no call. Compounds called inactive in the main read-out are mostly missing here. The note in brackets gives the kind of curve behind each potency; many fits are weak.

A word on the AC50: it is the concentration at which the activity in the assay is half-maximal. Take `CCc1ccc2[nH]c3nc(SCc4nnc(-c5ccccc5)o4)nnc3c2c1`: the cell number change is -20.7%. The AC50 under setting [1] is 18.4 µM [falling, partial curve].
Regarding `Nc1ncnc(Nc2ccc(F)cc2)n1`, the cell number change was -4.7%.
For the compound `Cc1cc([N+](=O)[O-])nn1CCCC(=O)Nc1c(C)n(C)n(-c2ccccc2)c1=O`, the cell number change was -23.9%. The AC50 under setting [1] was 0.517 µM [falling, partial curve, poor fit].
For the compound `Cc1ccccc1SCCNC(=O)CCc1ccccc1`, the cell number change was 72%. For the same compound, the AC50 under setting [2] was 4.11 µM [rising, full curve]. In addition, the half-maximal activity concentration (AC50) under setting [1] was 6.51 µM [rising, single point].
Take `Cc1ccc(S(=O)(=O)c2ncccc2[N+](=O)[O-])cc1`: the cell number change was -65.4%. For the same compound, the concentration at half-maximal activity (AC50) under setting [2] was 8.2 µM [falling, partial curve]. For the same compound, the concentration at half-maximal activity (AC50) under setting [1] was 8.2 µM [falling, partial curve].
For the compound `COc1ccc(NC(=O)C2CC(=O)N(c3ccccc3C)C2)c(OC)c1` (configuration not stated), the cell number change was -19.7%. Also, the half-maximal activity concentration (AC50) under setting [1] is 6.31 µM [falling, single point].
In the case of `Cn1nc(C(=O)Nc2ccc(Cl)c(S(=O)(=O)N3CCOCC3)c2)c2ccccc2c1=O`, the cell number change was -28.8%. For the same compound, under setting [2], the half-maximal activity concentration (AC50) was 0.082 µM [falling, full curve, poor fit]. Further, the AC50 under setting [1] was 0.00461 µM [falling, full curve, poor fit].
Turning to `O=C(Nc1ccc(Cl)cc1C(=O)NCCN1CCOCC1)c1ccc(Cl)cc1Cl`, the cell number change was 29.1%. Also, under setting [1], the AC50 is 23.1 µM [rising, single point].
Turning to `Cc1cc(C)c(S(=O)(=O)N(CC(=O)N2CCCC2)C2CCCCC2)c(C)c1`, the cell number change is -13.9%.
For the compound `O=C(O)c1ccc(Oc2ccc(S(=O)(=O)c3ccc(C(=O)O)c(C(=O)O)c3)cc2)cc1`, the cell number change was found to be 8.2%.
Regarding `O=C(CCn1cccc1)NC1CCCc2ccccc21` (configuration not stated), the cell number change was 10.6%. Further, the AC50 under setting [1] is 32.6 µM [falling, single point].
With `CC(C)(C)c1ccc(C(=O)NCC(=O)NCC(C)(C)N2CCOCC2)cc1`, the cell number change turned out to be 24.6%.
In the case of `CC(C)CC(=O)Nc1ccccc1N1CCN(C(=O)c2ccccc2)CC1`, the cell number change was -2.63%. Also, the concentration at half-maximal activity (AC50) under setting [1] was 2.06 µM [rising, partial curve].
`O=C(CNC(=O)c1cccnc1)N=Nc1c(O)[nH]c2c(Br)cc(Br)cc12`: the cell number change came out at 6.49%. Further, the AC50 under setting [1] was 5.17 µM [falling, single point].
With `COc1ccc(OC)c(N2C(=O)C(Cl)=C(N3CCCCC3)C2=O)c1`, the cell number change stood at 3.63%. Besides, the AC50 under setting [1] is 14.6 µM [rising, single point].
On to `COc1cc(CNn2c(C)n[nH]c2=S)cc(Cl)c1OCc1ccc(F)cc1`, for which the cell number change is -47%.
For the compound `CCN(CC)N=Nc1ccc(S(=O)(=O)Nc2c(C)n(C)n(-c3ccccc3)c2=O)cc1`, the cell number change is -18.2%.
Same read-out and setting: for `CCN1CCN(Cc2ccc(NC(=O)c3cc(NC(=O)c4cc5cccc(OC)c5o4)cc(OC)c3)cc2C(F)(F)F)CC1` the value was -16.1%.
